## Primary screen of a compound library

Chains of the proteins cited; added tags and fusions are not shown. Residues count along the entry.
UniProt P9WNZ1, whole entry: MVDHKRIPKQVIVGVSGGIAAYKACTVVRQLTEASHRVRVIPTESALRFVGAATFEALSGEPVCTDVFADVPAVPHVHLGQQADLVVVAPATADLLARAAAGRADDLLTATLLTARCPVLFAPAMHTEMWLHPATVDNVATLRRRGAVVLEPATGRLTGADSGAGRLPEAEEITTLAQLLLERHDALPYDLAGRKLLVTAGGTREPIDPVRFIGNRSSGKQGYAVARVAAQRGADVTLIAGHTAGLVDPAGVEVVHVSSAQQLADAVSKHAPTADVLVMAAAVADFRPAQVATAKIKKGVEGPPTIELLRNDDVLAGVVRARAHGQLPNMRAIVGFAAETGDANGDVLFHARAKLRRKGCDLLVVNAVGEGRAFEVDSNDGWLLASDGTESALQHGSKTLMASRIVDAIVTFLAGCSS
UniProt Q4DA54, 1-478: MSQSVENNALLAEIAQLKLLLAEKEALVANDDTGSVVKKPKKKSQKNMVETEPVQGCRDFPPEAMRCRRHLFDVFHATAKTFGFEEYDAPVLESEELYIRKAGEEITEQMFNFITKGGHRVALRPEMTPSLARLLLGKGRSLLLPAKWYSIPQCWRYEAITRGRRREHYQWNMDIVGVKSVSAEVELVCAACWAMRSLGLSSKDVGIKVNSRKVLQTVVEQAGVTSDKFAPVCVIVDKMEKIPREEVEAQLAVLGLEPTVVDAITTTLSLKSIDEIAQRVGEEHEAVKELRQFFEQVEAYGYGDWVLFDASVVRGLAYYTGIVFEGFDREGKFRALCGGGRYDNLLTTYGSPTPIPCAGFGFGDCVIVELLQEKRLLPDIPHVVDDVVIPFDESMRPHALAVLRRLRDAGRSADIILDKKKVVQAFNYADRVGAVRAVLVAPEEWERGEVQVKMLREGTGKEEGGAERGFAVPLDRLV

CoaBC: 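Enzyme assay of CoaBC with a phosphate dye (Biomol Green) read at 650 nm. Target: Coenzyme A biosynthesis protein CoaBC, Mycobacterium tuberculosis (UniProt P9WNZ1). Tested at 30 µM. Direction is inferred from only a few compounds that gave an IC50; most scored high, so higher reads as stronger inhibition. Most strong results did not repeat in a second test. About 67,000 compounds were tested under these conditions; 0.06% (about 40) showed 50% or more at least once.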
TcHisRS: 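Enzyme assay of histidyl-tRNA synthetase; the read-out is not stated. Target: Histidine-tRNA ligase, Trypanosoma cruzi CL Brener (UniProt Q4DA54). Tested at 30 µM. Direction is inferred from retests: higher values go with stronger inhibition. About 69,000 compounds were tested under these conditions; 0.045% (about 31) showed 50% or more at least once.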

Each number is a percent effect as filed. The controls that fix the scale are not given in the record; negative values are as filed. This is an unselected part of the compounds tested. Two or more numbers in one place are separate tests of the same structure; such repeats can differ widely. A dash means the value is not listed here; it may have been measured.

| structure | CoaBC | TcHisRS |
|---|---|---|
| `Cc1ncsc1C(=O)NCc1ccnc(N2CCN(C)CC2)c1` | -0.7673 | 4.706 |
| `CC(=O)c1c(O)n(C)c2ccc(F)cc12` | 3.356 | 8.247 |
| `c1cncc(COCc2nnc3n2CCN(Cc2cccs2)C3)c1` | -4.886 | 0.9804 |
| `COc1ccc(F)cc1-c1nc2c([nH]1)c(C1CC1)nn2C` | 15.1 | 7.182 |
| `Cn1cc(CC(=O)N2CCOC(c3nc(C(C)(C)C)n[nH]3)C2)cn1` (centres undefined) | 2.564 | 5.911 |
| `COc1ccc(-c2nnc(SCC(=O)NCC(C)C)[nH]2)c(OC)c1` | 6.883 | 2.174 |
| `O=C(NC1CCCN(c2ccc(OC(F)F)cc2)C1)c1c[nH]nn1` (centres undefined) | - | 1.299 |
| `Cc1nc(N2CCCC2)ncc1-c1cc(O)nc(NCC2CCCO2)n1` (centres undefined) | -3.002 | 2.609 |
| `O=C1NC2(CCN(C(=O)Cc3ccsc3)CC2)CC1c1ccncc1` (centres undefined) | 1.648 | 5.435 |
| `Cn1cnc2cc(C(=O)N3CCN(CCO)[C@@H]4CS(=O)(=O)C[C@@H]43)ccc21` | -0.9828 | 3.529 |
| `COc1cccc(CC(=O)N2CCN(C)c3ncccc3C2)c1` | 4.731 | 7.921 |
| `Cn1ccnc1CNc1ccc(F)c(N2CCCS2(=O)=O)c1` | -5.623 | 7.65 |
| `CN1C(=O)CC[C@@H]2N(C(=O)CCc3cccnc3)CCCC[C@@]21C` | 0.2427 | 8.812 |
| `COC(=O)c1ccc(N2CCN(CCC#N)C(C)C2)cc1` (centres undefined) | 2.17 | 4.545 |
| `CC(C)(CNc1cn[nH]c(=O)c1Cl)c1ccc2c(c1)OCO2` | 5.423 | 3.922 |
| `CN(C)C(=O)N1CCC2(CCC(C(=O)N3CCCC3)O2)CC1` (centres undefined) | 6.361 | 8.738 |
| `CCOC(=O)N[C@H]1C[C@@H](C(=O)NCCc2cccc(Cl)c2)N(C)C1` | -3.181 | 8.173 |
| `Cc1cc2nc(C(C)C)cc(N(C)CC3CCN(C(C)C)C3)n2n1` (centres undefined) | 4.133 | 5.128 |
| `CN(C)c1cc(C2CCCNC2)ccn1` (centres undefined) | -2.959 | 3.788 |
| `Cc1nn(CCO)c(C)c1CNCc1cccnc1N(C)C` | 20.39 and 5.67 | 1.744 |
| `O=C(NCCCF)N1CCC(n2ccc(C(F)(F)F)n2)CC1` | 0.3841 | 7.975 |
| `CCn1ccc(-c2cc(NCCCOc3cccc(C)c3)nc(C)n2)n1` | 1.399 | 8.647 |
| `CCc1nsc(NC2CC(=O)N(C3CC3)C2)n1` (centres undefined) | 7.86 | 1.948 |
| `Cc1ccc(CN2CCC3(CC(=O)N(c4cccc(F)c4)C3)C2)o1` (centres undefined) | 10.75 | 2.174 |
| `COCCC(=O)N1CCC2(COCc3cnc(N(C)C)nc32)C1` (centres undefined) | 2.25 | 5.882 |
| `CC(C)c1cnc(CN(C)C2CCN(CCc3ccncc3)C2)o1` (centres undefined) | -2.269 | 5.051 |
| `CC(C)C(=O)N1CCN(C(=O)c2cc(C(C)C)on2)[C@H]2CS(=O)(=O)C[C@H]21` | 9.705 | -4.065 |
| `COCC(=O)N1CCC(c2noc3nc(C)cc(C(F)(F)F)c23)CC1` | 6.944 | 4.865 |
| `COC(=O)CC1CCCCN1CC(=O)NCCc1ccc(F)cc1` (centres undefined) | 5.178 | 6.03 |
| `O=C(c1ccncn1)N1CCC[C@]2(C[C@H](Oc3ncccc3F)CO2)C1` | -2.589 | 1.754 |
| `Cc1cc(CN2CCc3cncnc3C2)no1` | 6.25 | 13.81 |
| `Cc1nc(CN2CCN(Cc3cc4n(n3)CCNC4)CC2)cs1` | 1.242 | -2.564 |
| `CCC(C)C(=O)NCc1c(C)nn(C)c1N1CCCN(C)CC1` (centres undefined) | 3.972 | 3.097 |
| `CCN1CCCc2cc(CN3CCc4nc(C)[nH]c(=O)c4C3)ccc21` | 2.055 | 4.286 |
| `CCNC(=O)NC[C@H]1Cn2c(-c3ccccc3)cnc2CO1` | 8.168 | 0 |
| `COc1ccc(OCC(=O)NS(=O)(=O)c2cc(F)ccc2F)cc1` | -8.742 | 4.167 |
| `CSC(C)C(=O)N1CCCN(Cc2cscn2)CC1` (centres undefined) | -6.915 | -1.901 |
| `CCn1nc(C)c(CCn2ccnc2-c2cc3n(n2)CCCNC3)c1C` | -22.77 | 5.394 |
| `CCn1nc(C)c(NC(=O)CN(C)C(C)c2ccon2)c1C` (centres undefined) | 12.13 | 0.5291 |
| `CC(C(=O)Nc1ccc(N2CCCCC2)nc1)n1ccnc1` (centres undefined) | 15.57 | 5.233 |
| `COCCN1CCCCC12CC(=O)N(c1ccccc1OC)C2` (centres undefined) | 0.7426 | 3.315 |
| `Cc1cn(-c2ccccc2)nc1NS(=O)(=O)c1cccc(C(=O)O)c1` | -3.198 | 1.653 |
| `CC(=O)N1[C@H](CN(C)C)C[C@@H]2CN(C(=O)Cc3cccs3)CC[C@@H]21` | 3.294 | 3.365 |
| `CCCn1nccc1C(=O)N1CCCC(C(=O)CCc2ccccc2)C1` (centres undefined) | 4.727 | 2.041 |
| `CCc1ccc(C2CC(=O)Nc3cc(NS(C)(=O)=O)ccc32)o1` (centres undefined) | 7.071 | 3.03 |
| `CCc1n[nH]c(C2CN(C(=O)c3cnc[nH]3)CCO2)n1` (centres undefined) | 5.128 | -2.642 |
| `CN1CCC(C2CCN(Cc3cccc(-n4cccn4)c3)CC2)C1` (centres undefined) | 4.668 | -13.58 |
| `CN(CCc1noc(C2CC2)n1)C(=O)CCc1cc2n(n1)CCCNC2` | -15.29 | 2.717 |
| `COCCNc1ccc(CNC(=O)Nc2cn[nH]c2)cc1` | -1.028 | 3.008 |
| `O=C1COC2(CCN(C(=O)C3CC=CC3)CC2)CN1Cc1cccnc1` | -6.582 | 2.4 |
| `CN(CC(=O)Nc1nc2c(s1)CCCCCC2)C(=O)c1ccco1` | 0.6242 | 4.082 |
| `Cc1cc(C)c2[nH]c(=O)c(CN3CCCC4(C3)CN(C)C(=O)O4)cc2c1` (centres undefined) | -3.474 | 8.671 |
| `CS(=O)(=O)N1CCOCC2(CN(Cc3ccsc3)CCO2)C1` (centres undefined) | 0.6452 | 3.306 |
| `Cc1occc1C(=O)NCC(=O)NCCCOc1ccc(F)cc1` | -1.829 | 3.012 |
| `CCn1c(CN2CCN(CCOC)CC2)nc2c(F)cccc21` | 5.196 | 11.83 |
| `CN(C)CC(C)(C)Cn1cnc(-c2ccccc2)c1-c1ncc[nH]1` | 1.566 | 4.124 |
| `COCCN(C)C[C@@H]1CCC[C@@H]2CN(Cc3ccc(OC)nc3)C[C@@H]21` | -10 | 6.952 |
| `CCNC(=O)N(Cc1ccoc1)C1CCCCC1` | 0.9724 | 2.02 |
| `O=C(Cc1ccsc1)N1CCC[C@@H]1Cn1c(=O)oc2ccccc21` | 4.116 | 1.695 |
| `Cc1ccc(CN2CC[C@@H](NC(=O)c3cccnc3)[C@H](O)C2)s1` | 3.316 | 0.4464 |
| `Cc1cc(NC(=O)N2CCN(C)CC2C)n(C(C)(C)C)n1` (centres undefined) | 3.526 | 4.926 |
| `CCc1ncc2c(n1)CN(C(=O)COC)C2` | -5.33 | 2.479 |
| `COc1ccc(OC)c(C(O)CNC(=O)Nc2ccc(F)cc2F)c1` (centres undefined) | 5.839 | 2.579 |
| `O=C(Cc1ccccc1)N1CCC(c2nnc(-c3ccccn3)o2)CC1` | -7.891 | 4.545 |
| `COc1cccc(COCC(=O)N2CCCC(n3ccnc3)C2)c1` (centres undefined) | 0.3559 | 3.759 |
| `Cc1noc(C)c1CN1CCN(Cc2nccn2C)C(C)C1` (centres undefined) | -0.2571 | -1.504 |
| `COCCN1C(=O)CCC12CCN(C(=O)CNC(C)=O)CC2` | 0 | 6.25 |
| `CC(=O)N1CCC(NC(=O)Cc2nc3nc(C)cc(C)n3n2)CC1` | -1.272 | 3.509 |
| `CC(=O)N[C@@H]1CN(C(=O)c2cnccn2)C[C@H]1c1ccc(C)cc1` | 9.504 | 3.804 |
| `O=C1CC(c2ccco2)c2sc(C(=O)O)c(-c3ccccc3)c2N1` (centres undefined) | 43.39 and 70.18 | -6.612 |
| `CN(C)C(=O)N1CCC2(CC1)NC(=O)c1ccccc12` | - | 2.532 |
| `Cc1ccc(CCN2CCC(N(C)Cc3noc(C4CC4)n3)C2)cc1` (centres undefined) | 5.181 | -0.7634 |
| `CCc1[nH]ncc1C(=O)N1CCOC(c2nc(C)n[nH]2)C1` (centres undefined) | -2.163 | 0.5634 |
| `Cc1nnnn1-c1ccc(CC(=O)N2CCOCC(O)C2)cc1` (centres undefined) | 1.951 | 1.961 |
| `COc1cccc(CN2CCC3(CC2)CCN(c2ncc(F)cn2)C3)c1` | -9.937 | 4.301 |
| `NC(=O)C1CCN(CCc2ccc(NCc3cccnc3)cc2)CC1` | 5.511 | -2.02 |
| `CN(C)C(=O)CNC(=O)c1cc2c(s1)CCN2S(C)(=O)=O` | -11.71 | 3.81 |
| `O=C(NCCc1nnc2n1CCC2)c1ccccc1OC1CCCC1` | 2.593 | 0 |
| `c1ccc2c(c1)cnn2CCCNC1CCOC2(CCOCC2)C1` (centres undefined) | 2.915 | 2.155 |

Repeated from the top, 7 entries:

structure	CoaBC	TcHisRS
Cc1ncsc1C(=O)NCc1ccnc(N2CCN(C)CC2)c1	-0.7673	4.706
CC(=O)c1c(O)n(C)c2ccc(F)cc12	3.356	8.247
c1cncc(COCc2nnc3n2CCN(Cc2cccs2)C3)c1	-4.886	0.9804
COc1ccc(F)cc1-c1nc2c([nH]1)c(C1CC1)nn2C	15.1	7.182
Cn1cc(CC(=O)N2CCOC(c3nc(C(C)(C)C)n[nH]3)C2)cn1 (centres undefined)	2.564	5.911
COc1ccc(-c2nnc(SCC(=O)NCC(C)C)[nH]2)c(OC)c1	6.883	2.174
O=C(NC1CCCN(c2ccc(OC(F)F)cc2)C1)c1c[nH]nn1 (centres undefined)	-	1.299

Source: ChEMBL document CHEMBL3988442, “University of Dundee, Small-Polar-MMV Screening Library” (2021).